# Measured values taken from the supplement of paper PMC12889115.
# The list shows a part of the results. Values are raw readings; no control value is given beside them.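 In the initial screen, polymyxin B was used at a concentration that permeabilizes Salmonella's outer membrane but not its inner membrane. Maximum growth was set by DMSO wells with or without polymyxin B. Since plates varied, data were ranked per plate, and compounds giving the lowest OD600 advanced as hits.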
# Test system: Salmonella enterica serovar Typhimurium SL1344
# Test: bacterial growth OD600 after 18 h with compound and polymyxin B; higher = more bacterial growth (less inhibition)
# Settings: 50 µM, Mueller-Hinton broth
SMILES,bacterial growth OD600 (polymyxin B 0.75 µg/mL),bacterial growth OD600 (polymyxin B 1 µg/mL)
O=C(NCCc1ccccn1)C1CC12CCN(C(=O)/C=C/c1cccc(F)c1F)CC2 (stereo not given),0.806,
CCO[C@H]1[C@H](NC(=O)c2ccco2)c2ccccc2C12CCN(Cc1ccc(OC)c(O)c1)CC2,0.798,
COc1ccccc1C1CCCN1Cc1nc(-c2ccc(OC)c(C)c2OC)oc1C (stereo not given),,0.698
O=C(c1nc2sccn2c1CN1CCN(c2ccccc2F)CC1)N1CCCCC1,,0.952
Cn1cnnc1SCCNC(=O)c1cc(NC(=O)C2CCCO2)c2c(c1)nc(C1CCC1)n2C (stereo not given),0.741,
Cn1cc(CN2CCCC(CCc3ccc(F)cc3F)C2)cn1 (stereo not given),1.03,
Cc1ccc(OCc2cc(C(=O)N3CCCCC3c3nccs3)no2)cn1 (stereo not given),,0.85
COc1ccc(/C=C/CN2CCC3(CC2)c2ccccc2[C@@H](NC(=O)c2ccco2)[C@@H]3OC)cc1,0.8,
CCOC(=O)CC1CCCCN1Cc1nc(N2CCCN(C(C)=O)CC2)c2cccc(C)c2n1 (stereo not given),0.819,
CSCCCNC(=O)c1cc(Cn2c(C)nc3ccccc32)on1,,0.776
CC(C)Oc1ccc(CN2CC[C@@H](N3CCN(c4ccccn4)CC3)[C@H](O)C2)cc1CO,0.806,
CN(Cc1cn(Cc2ccccc2)nc1-c1ccc2c(c1)OCO2)CC1CCOCC1,,1.05
CCN1CC(CN(C)Cc2nc(-c3ccc(OC)c(OC)c3OC)no2)CC1=O (stereo not given),,0.965
CSc1ncc(CN(C)CC2CCCN(CCc3ccccc3C)C2)cn1 (stereo not given),,0.773
Cc1cc(-c2nnc(CCC(=O)N3CCN(C4CCCC4)CC3)o2)c(C)o1,,0.746
COCCCN1C(=O)CC(CC(=O)N(C)C(C2CC2)C2CC2)(c2ccccc2OC)C1=O (stereo not given),0.49,
CS(=O)(=O)N1CCC(C2CCN(c3ncccn3)CC2)C1 (stereo not given),0.829,
Cc1nonc1CN(C)C(=O)C1CCN(c2nc(-c3ccccc3)nc3c2CCC3)CC1,,0.004
CCn1ccnc1CN(C)C(=O)c1csc2nc(-c3ccccc3C)cn12,,0.783
COc1cccc(OCc2cc(C(=O)N3CCN(C4CCCCC4)CC3)n[nH]2)c1,,0.863
COc1ccc(C(=O)N2CCC(n3nccc3NC(=O)CC(C)C)CC2)cc1OC,,1.31
Cc1ccc(-n2ncc3c2CC(C)(C)CC3NC2CCOCC2)cc1 (stereo not given),,0.986
COC(=O)CCCC(=O)N1CCCC(CCc2ccccc2)C1 (stereo not given),0.737,
Cc1cccc(-c2cccc(NC(=O)C3CCCN3C(=O)c3ncoc3C)c2)c1 (stereo not given),0.533,
COc1cccc(-n2cc(CN(C)Cc3nc(-c4ccccc4)no3)cn2)c1,,0.787
COCCCN1C(=O)CC(CC(=O)N(C)CCC2CCCCO2)(c2ccccc2OC)C1=O (stereo not given),0.875,
CO[C@H]1[C@H](NC(=O)c2ccco2)c2ccccc2C12CCN(Cc1c(F)ccc(F)c1F)CC2,0.662,
CN(C(=O)c1ccco1)C(Cc1ccc(F)cc1F)C1CCN(Cc2cc(Cl)ccc2O)CC1 (stereo not given),0.002,
O=C(NCc1ccncc1)c1ccc(OC2CCN(C3CCCCCC3)CC2)cc1,,1.04
O=C(Cc1ccc(F)cc1)N1CCC(C2(c3ccccn3)NC(=O)N(CC3CCCO3)C2=O)CC1 (stereo not given),0.886,

# 2 entries from above, bar-delimited.
SMILES | bacterial growth OD600 (polymyxin B 0.75 µg/mL) | bacterial growth OD600 (polymyxin B 1 µg/mL)
Cc1nonc1CN(C)C(=O)C1CCN(c2nc(-c3ccccc3)nc3c2CCC3)CC1 |  | 0.004
O=C(Cc1ccc(F)cc1)N1CCC(C2(c3ccccn3)NC(=O)N(CC3CCCO3)C2=O)CC1 (stereo not given) | 0.886 | 
